# Laboratory results from PubChem BioAssay AID292 (DTP/NCI, 2004).
# The list does not hold the whole screen: it is rich in T/C values a quarter to a half above the control, in often repeated tests (any T/C) and in doses without a T/C. Other doses and runs of a compound stand elsewhere. T/C: endpoint of the treated group in % of that of the vehicle group. Some entries give survivors of the animals treated and no T/C: the source files T/C as zero there, which appears to mark a toxic dose or a test without result, not a measured value. Some doses without a T/C left all or most animals alive at the check, yet need not have been tolerated: survival well below the control is almost never listed, so the zero probably covers shortened survival too. Counts of survivors are from the toxicity check (mostly the fifth day) where no day follows; animals may have died later. Schedules are NCI's codes, taken here to give the interval after Q, in days (D) or hours (H), and the number of doses after X. Some entries were tested several times; the results are listed from low to high. For survival time, the PubChem record calls one and a half times the control and up active, and a quarter to a half above the control has no call in these data; cut-offs in other NCI protocols can differ. Some T/C values are followed by the survivors on the day toxicity was checked, most often the fifth; without a count, all were alive then. Signs of the kind (2×) count equal records among those shown.
# Test system: B6C3F1 mice, ip Sarcoma M5076, median survival T/C
# Assay: NCI In Vivo Anticancer Drug Screen. Data for tumor model Sarcoma M5076 (intraperitoneal) in B6C3F1 mice
# Settings: T/C endpoint: median survival time, higher T/C = longer survival
# Summary of the method: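 Transplantable tumour in mice; compound-treated vs vehicle-treated groups. Read-out: survival. Value = treated/control ratio.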
# [1] = dose: 400.0 mg/kg/injection, schedule: Q04DX004 (ip), vehicle: saline with Tween-80
# [2] = dose: 6.25 mg/kg/injection, schedule: Q04DX005 (ip), vehicle: saline
# [3] = dose: 100.0 mg/kg/injection, schedule: Q04DX004 (ip), vehicle: saline
# [4] = dose: 100.0 mg/kg/injection, schedule: Q04DX005 (ip), vehicle: saline
# [5] = dose: 300.0 mg/kg/injection, schedule: Q04DX004 (ip), vehicle: saline with Tween-80
# [6] = dose: 100.0 mg/kg/injection, schedule: Q04DX004 (ip), vehicle: Klucel (hydroxypropylcellulose) (HPC)
# [7] = dose: 200.0 mg/kg/injection, schedule: Q04DX004 (ip), vehicle: Klucel (hydroxypropylcellulose) (HPC)
structure (smiles),measurement,setting,value
CCCCCCCC(=O)[O][Hg][CH2]C1COC([CH2][Hg][O]C(=O)CCCCCCC)CO1 (configuration not stated),survivor count,"dose: 6.25 mg/kg/injection, schedule: Q04DX004 (ip), vehicle: saline with Tween-80",10 of 10 on day 14
same,survivor count,"dose: 12.5 mg/kg/injection, schedule: Q04DX004 (ip), vehicle: saline with Tween-80",8 of 10 on day 14
same,survivor count,"dose: 100.0 mg/kg/injection, schedule: Q04DX004 (ip), vehicle: saline with Tween-80",0 of 10 on day 14
C=C(C)/C([O-])=N/[N+](C)(C)CC(O)CCCCCCCCCCCC (configuration not stated),survivor count,"dose: 200.0 mg/kg/injection, schedule: Q04DX004 (ip), vehicle: suspension in saline",9 of 10 on day 14
O=C(Nc1ccccc1CCl)Nc1ccccc1CCl,T/C,[1],128 [8 of 10 alive on day 14] and 137 % of control
same,survivor count,"dose: 800.0 mg/kg/injection, schedule: Q04DX004 (ip), vehicle: saline with Tween-80",0 of 10 on day 14
C[CH2][Sn]([CH2]C)([CH2]C(=O)OC)[CH2]C(=O)OC,survivor count,"dose: 24.0 mg/kg/injection, schedule: Q04DX004 (ip), vehicle: saline with Tween-80",6 of 10 on day 14
CN(C)CCNC1=CC(=O)c2ccccc2C1=O,survivor count,"dose: 200.0 mg/kg/injection, schedule: Q04DX004 (ip), vehicle: distilled water + Tween-80",3 of 10 on day 14
same,survivor count,"dose: 400.0 mg/kg/injection, schedule: Q04DX004 (ip), vehicle: distilled water + Tween-80",0 of 10 on day 14
same,survivor count,"dose: 800.0 mg/kg/injection, schedule: Q04DX004 (ip), vehicle: distilled water + Tween-80",0 of 10 on day 14
CC(=O)OCc1cc(=O)n(C)c2c3c4c(cc12)c(C)cc(=O)n4CO3,survivor count,"dose: 160.0 mg/kg/injection, schedule: Q04DX004 (ip), vehicle: Klucel (hydroxypropylcellulose) (HPC)",5 of 10 on day 14
C/C([O-])=c1\c(C)nn2ccc[n+]12,survivor count,[1],4 of 10 on day 14
CN(C)C(=O)c1cccc(COc2ccc(N3C(N)=NC(N)=NC3(C)C)cc2Cl)c1,T/C,"dose: 6.25 mg/kg/injection, schedule: Q04DX004 (ip), vehicle: saline","97, 99, 100, 103 (2×), 105, 111 % of control"
same,T/C,[2],"89, 92, 100, 100 % of control [9 of 10 alive on day 9]"
same,survivor count,[2],8 of 8 on day 17
same,T/C,"dose: 12.5 mg/kg/injection, schedule: Q04DX004 (ip), vehicle: saline","88, 91, 98, 102 (2×), 110, 114 % of control"
same,T/C,"dose: 12.5 mg/kg/injection, schedule: Q04DX005 (ip), vehicle: saline, evaluated on day 75","90, 100, 102, 111 % of control"
same,T/C,"dose: 12.5 mg/kg/injection, schedule: Q04DX005 (ip), vehicle: saline, evaluated on day 100",100 % of control
same,T/C,"dose: 25.0 mg/kg/injection, schedule: Q04DX004 (ip), vehicle: saline","95, 95 [9 of 10 alive on day 9], 100 (2×), 108, 109, 115 % of control"
same,T/C,"dose: 25.0 mg/kg/injection, schedule: Q04DX005 (ip), vehicle: saline, evaluated on day 75","98 [9 of 10 alive on day 9], 102 [9 of 10 alive on day 9], 106 % of control"
same,T/C,"dose: 25.0 mg/kg/injection, schedule: Q04DX005 (ip), vehicle: saline, evaluated on day 100",92 % of control
same,survivor count,"dose: 25.0 mg/kg/injection, schedule: Q04DX005 (ip), vehicle: saline",10 of 10 on day 9
same,T/C,"dose: 50.0 mg/kg/injection, schedule: Q04DX004 (ip), vehicle: saline","88, 96, 98 [7 of 10 alive on day 9], 102 (3×), 128 % of control"
same,T/C,"dose: 50.0 mg/kg/injection, schedule: Q04DX005 (ip), vehicle: saline, evaluated on day 75",96 [9 of 10 alive on day 9] and 109 % of control
same,T/C,"dose: 50.0 mg/kg/injection, schedule: Q04DX005 (ip), vehicle: saline, evaluated on day 100",91 % of control [6 of 8 alive on day 17]
same,survivor count,"dose: 50.0 mg/kg/injection, schedule: Q04DX005 (ip), vehicle: saline",5 of 10 on day 9 and 10 of 10 on day 9
same,T/C,[3],94 and 105 % of control
same,survivor count,[3],"0 of 10 on day 14, 0 of 10 on day 9, 3 of 10 on day 14"
same,T/C,[4],91 % of control
same,survivor count,[4],0 of 10 on day 9 and 0 of 8 on day 17
CCOP1(OCC)(SSC)OC(=O)C(C)S1 (configuration not stated),survivor count,"dose: 150.0 mg/kg/injection, schedule: Q04DX004 (ip), vehicle: saline with Tween-80",3 of 10 on day 14
same,survivor count,[5],0 of 10 on day 14
CC(C)CCC(=O)c1ccoc1,survivor count,"dose: 4.0 mg/kg/injection, schedule: Q03HX012 (ip), vehicle: saline with Tween-80",0 of 10 on day 14
CC1=C[P+](c2ccccc2)(c2ccccc2)C=C(c2ccccc2)O1,T/C,"dose: 2.5 mg/kg/injection, schedule: Q04DX004 (ip), vehicle: saline + alcohol",130 % of control
same,survivor count,"dose: 20.0 mg/kg/injection, schedule: Q04DX004 (ip), vehicle: saline + alcohol",0 of 10 on day 14
COc1ccccc1C1C(C#N)C(=O)NC(=O)C1C#N (configuration not stated),survivor count,"dose: 800.0 mg/kg/injection, schedule: Q04DX004 (ip), vehicle: Klucel (hydroxypropylcellulose) (HPC)",2 of 10
COc1ccc(CCN2C(=O)C(=O)N(C)C2=O)cc1OC,survivor count,[6],10 of 10 on day 14
same,survivor count,[7],10 of 10 on day 14
O=C1N=NC2=C1c1c3ccccc3c(O)n1CC2,survivor count,"dose: 400.0 mg/kg/injection, schedule: Q04DX004 (ip), vehicle: water",10 of 10 on day 14
NCCn1c(-c2ccccc2)nc2ccccc2c1=O,survivor count,"dose: 400.0 mg/kg/injection, schedule: Q04DX004 (ip), vehicle: Klucel (hydroxypropylcellulose) (HPC)",2 of 10 on day 14
[N-]=[N+]=CC(=O)CCC(NC(=O)OCc1ccccc1)C(=O)OCc1ccccc1 (configuration not stated),T/C,"dose: 50.0 mg/kg/injection, schedule: Q04DX004 (ip), vehicle: Klucel (hydroxypropylcellulose) (HPC)",145 % of control
same,T/C,[6],141 % of control
same,T/C,[7],130 % of control [7 of 9 alive on day 14]
same,T/C,"dose: 400.0 mg/kg/injection, schedule: Q04DX004 (ip), vehicle: Klucel (hydroxypropylcellulose) (HPC), evaluated on day 60",125 % of control [8 of 10 alive on day 14]
same,T/C,"dose: 400.0 mg/kg/injection, schedule: Q04DX004 (ip), vehicle: Klucel (hydroxypropylcellulose) (HPC), evaluated on day 75",143 % of control [8 of 9 alive on day 14]
CCOP(=S)(OCC)OC(=O)C(C)SSC (configuration not stated) (tested in a mixture with another compound),survivor count,[5],1 of 10 on day 14
same,survivor count,"dose: 600.0 mg/kg/injection, schedule: Q04DX004 (ip), vehicle: saline with Tween-80",0 of 10 on day 14
